To fix the notation:
B1: DJC10, endogenous in HEPG2 cells (protein, UniProt Q8IXB1 33-793)
chain: DQDFYSLLGVSKTASSREIRQAFKKLALKLHPDKNPNNPNAHGDFLKINRAYEVLKDEDLRKKYDKYGEKGLEDNQGGQYESWNYYRYDFGIYDDDPEIITLERREFDAAVNSGELWFVNFYSPGCSHCHDLAPTWRDFAKEVDGLLRIGAVNCGDDRMLCRMKGVNSYPSLFIFRSGMAPVKYHGDRSKESLVSFAMQHVRSTVTELWTGNFVNSIQTAFAAGIGWLITFCSKGGDCLTSQTRLRLSGMLDGLVNVGWMDCATQDNLCKSLDITTSTTAYFPPGATLNNKEKNSILFLNSLDAKEIYLEVIHNLPDFELLSANTLEDRLAHHRWLLFFHFGKNENSNDPELKKLKTLLKNDHIQVGRFDCSSAPDICSNLYVFQPSLAVFKGQGTKEYEIHHGKKILYDILAFAKESVNSHVTTLGPQNFPANDKEPWLVDFFAPWCPPCRALLPELRRASNLLYGQLKFGTLDCTVHEGLCNMYNIQAYPTTVVFNQSNIHEYEGHHSAEQILEFIEDLMNPSVVSLTPTTFNELVTQRKHNEVWMVDFYSPWCHPCQVLMPEWKRMARTLTGLINVGSIDCQQYHSFCAQENVQRYPEIRFFPPKSNKAYHYHSYNGWNRDAYSLRIWGLGFLPQVSTDLTPQTFSEKVLQGKNHWVIDFYAPWCGPCQNFAPEFELLARMIKGKVKAGKVDCQAYAQTCQKAGIRAYPTVKFYFYERAKRNFQEEQINTRDAKAIAALISEKLETLRNQGKRNKDEL
B2: prosaposin (PSAP), endogenous in HEPG2 cells (protein, UniProt P07602 17-524)
chain: GPVLGLKECTRGSAVWCQNVKTASDCGAVKHCLQTVWNKPTVKSLPCDICKDVVTAAGDMLKDNATEEEILVYLEKTCDWLPKPNMSASCKEIVDSYLPVILDIIKGEMSRPGEVCSALNLCESLQKHLAELNHQKQLESNKIPELDMTEVVAPFMANIPLLLYPQDGPRSKPQPKDNGDVCQDCIQMVTDIQTAVRTNSTFVQALVEHVKEECDRLGPGMADICKNYISQYSEIAIQMMMHMQPKEICALVGFCDEVKEMPMQTLVPAKVASKNVIPALELVEPIKKHEVPAKSDVYCEVCEFLVKEVTKLIDNNKTEKEILDAFDKMCSKLPKSLSEECQEVVDTYGSSILSILLEEVSPELVCSMLHLCSGTRLPALTVHVTQPKDGGFCEVCKKLVGYLDRNLEKNSTKQEILAALEKGCSFLPDPYQKQCDQFVAEYEPVLIEILVEVMDPSFVCLKIGACPSAHKPLLGTEKCIWGPSYWCQNTETAAQCNAVEHCKRHVWN
B3: sPLA2-IIA, endogenous in HEPG2 cells (enzyme, UniProt P14555 21-144)
chain: NLVNFHRMIKLTTGKEAALSYGFYGCHCGVGGRGSPKDATDRCCVTHDCCYKRLEKRGCGTKFLSYKFSNSGSRITCAKQDSCRSQLCECDKAAATCFARNKTTYNKKYQYYSNKHCRGSTPRC

Sequences of proteins named here, by UniProt entry; tags and fusion partners are left off. Residues count along the entry.
UniProt P28799, residues 18-593: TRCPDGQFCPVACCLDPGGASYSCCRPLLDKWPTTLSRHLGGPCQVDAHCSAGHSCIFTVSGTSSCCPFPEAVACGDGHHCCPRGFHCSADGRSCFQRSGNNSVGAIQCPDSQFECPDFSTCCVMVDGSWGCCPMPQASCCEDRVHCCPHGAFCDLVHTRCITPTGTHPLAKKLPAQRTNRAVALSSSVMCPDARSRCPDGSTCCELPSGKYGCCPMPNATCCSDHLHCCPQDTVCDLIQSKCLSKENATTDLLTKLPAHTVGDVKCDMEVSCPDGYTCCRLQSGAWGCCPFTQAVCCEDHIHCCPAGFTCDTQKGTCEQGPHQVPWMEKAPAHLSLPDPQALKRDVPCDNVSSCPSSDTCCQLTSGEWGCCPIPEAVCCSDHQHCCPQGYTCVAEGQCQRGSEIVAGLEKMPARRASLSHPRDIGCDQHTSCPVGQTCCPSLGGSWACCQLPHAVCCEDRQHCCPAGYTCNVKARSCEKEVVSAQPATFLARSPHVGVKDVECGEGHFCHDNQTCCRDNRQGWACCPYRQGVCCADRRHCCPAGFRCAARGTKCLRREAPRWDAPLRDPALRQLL
UniProt P11021, residues 19-654: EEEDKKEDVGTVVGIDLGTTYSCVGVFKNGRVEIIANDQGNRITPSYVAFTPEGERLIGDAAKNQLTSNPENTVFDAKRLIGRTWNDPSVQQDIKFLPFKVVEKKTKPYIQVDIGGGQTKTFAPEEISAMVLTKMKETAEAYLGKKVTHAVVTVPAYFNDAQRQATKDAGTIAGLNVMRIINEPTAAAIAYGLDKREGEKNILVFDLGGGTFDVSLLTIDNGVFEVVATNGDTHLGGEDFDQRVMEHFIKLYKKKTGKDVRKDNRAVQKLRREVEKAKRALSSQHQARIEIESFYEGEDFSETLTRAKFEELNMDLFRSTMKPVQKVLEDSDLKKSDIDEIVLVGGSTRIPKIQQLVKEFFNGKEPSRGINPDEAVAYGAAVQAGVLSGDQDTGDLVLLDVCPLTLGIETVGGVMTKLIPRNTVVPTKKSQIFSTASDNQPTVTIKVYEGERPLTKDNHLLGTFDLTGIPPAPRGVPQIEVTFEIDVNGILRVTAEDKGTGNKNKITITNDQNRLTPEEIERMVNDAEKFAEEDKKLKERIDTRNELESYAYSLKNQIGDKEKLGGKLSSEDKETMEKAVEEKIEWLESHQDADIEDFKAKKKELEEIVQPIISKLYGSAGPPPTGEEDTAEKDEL

Results are given in words; binding and its absence hold for the method and conditions named. Binding seen in cells or lysates may run through a third protein. These calls come from enrichment with a bait or labelling near it, and not all partners need be listed.

The target of this assay is GFP-PGRN (human progranulin), expressed in HEPG2 cells (human) (UniProt P28799). In words: affinity purification with mass spectrometry.
Turning to “BIP, endogenous in HEPG2 cells (from UniProt P11021 19-654)”, the binding result is given as “binds”.

In the case of B1, the binding entry was “binds”.

As for B2, the binding entry is listed as “binds”. Take B3: the binding entry was “binds”.

The values are drawn from paper doi:10.1101/2023.04.06.535844.
